The record followed here is the supplement of paper PMC10338343.

± gives the standard deviation. This is one part of the list. Many of these values have a large error.

This assay concerns EfPiwi piRISC loaded with L1MC piRNA (26 nt). The assay is described as follows: pre-steady-state target cleavage rate (min^-1); guide: L1MC piRNA 5'p-UAACUAAAUACUAUGCAAGCUGUAGG; MIWI and MILI are mouse PIWI proteins and EfPiwi is from a freshwater sponge; tags in brackets are library labels; higher = faster piRNA-guided slicing of the target. The conditions noted are these: auxiliary factor: none (no Gtsf1). Summed up: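 Active affinity-purified piRISC carrying one synthetic guide (1 nM) was mixed with a transcribed, DNA-blocked target RNA library […] in HEPES–potassium acetate buffer at 33 °C for 0–8 or 0–960 min, with or without 500 nM GTSF1 partner protein. Uncleaved targets were then sequenced and normalised to depth and to weakly complementary targets. Three trials were pooled, and k3 was capped at 0.0001 min^-1. A burst-and-steady-state fit was applied to obtain the pre-steady-state cleavage rate.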
With “UCCUGGAUGUGCUUGCAUAGUAUUUAGUUG [g2:g20:cont:t1G]”, the “pre-steady-state target cleavage rate” value was determined as 0.00187 ± 0.0083.

As for UCCUGGAUGUCGAACGUUAGUAAUUAGUAA, the “pre-steady-state target cleavage rate” value is less than 0.0001.

With UCCUGGAUGUCGAACGAAGUAUUUAGUUA, the “pre-steady-state target cleavage rate” value was less than 0.0001.

For the sequence UCCUGGAUGUCGAAGCAUAGAAUUUUGUUA, the “pre-steady-state target cleavage rate” value was 0.000111 ± 0.032.

Consider UCCUGGAUGUCGAACGAUAGUAUUUGGUUA, for which the “pre-steady-state target cleavage rate” value was less than 0.0001.

On to UCCUGGAUCAGCUUGCAUAGUAUUUACAAA, for which the “pre-steady-state target cleavage rate” value was 0.000904 ± 0.0091.
